The values below come from article PMC2408616, “Modular Organization and Combinatorial Energetics of Proline–Tyrosine Nuclear Localization Signals” (PLoS Biology, 2008).

By UniProt entry, the sequences of proteins in these tests, tags left out. Residues count along the entry.
UniProt P09651, residues 309-357: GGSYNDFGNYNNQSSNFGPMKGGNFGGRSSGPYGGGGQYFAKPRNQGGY
UniProt Q92973: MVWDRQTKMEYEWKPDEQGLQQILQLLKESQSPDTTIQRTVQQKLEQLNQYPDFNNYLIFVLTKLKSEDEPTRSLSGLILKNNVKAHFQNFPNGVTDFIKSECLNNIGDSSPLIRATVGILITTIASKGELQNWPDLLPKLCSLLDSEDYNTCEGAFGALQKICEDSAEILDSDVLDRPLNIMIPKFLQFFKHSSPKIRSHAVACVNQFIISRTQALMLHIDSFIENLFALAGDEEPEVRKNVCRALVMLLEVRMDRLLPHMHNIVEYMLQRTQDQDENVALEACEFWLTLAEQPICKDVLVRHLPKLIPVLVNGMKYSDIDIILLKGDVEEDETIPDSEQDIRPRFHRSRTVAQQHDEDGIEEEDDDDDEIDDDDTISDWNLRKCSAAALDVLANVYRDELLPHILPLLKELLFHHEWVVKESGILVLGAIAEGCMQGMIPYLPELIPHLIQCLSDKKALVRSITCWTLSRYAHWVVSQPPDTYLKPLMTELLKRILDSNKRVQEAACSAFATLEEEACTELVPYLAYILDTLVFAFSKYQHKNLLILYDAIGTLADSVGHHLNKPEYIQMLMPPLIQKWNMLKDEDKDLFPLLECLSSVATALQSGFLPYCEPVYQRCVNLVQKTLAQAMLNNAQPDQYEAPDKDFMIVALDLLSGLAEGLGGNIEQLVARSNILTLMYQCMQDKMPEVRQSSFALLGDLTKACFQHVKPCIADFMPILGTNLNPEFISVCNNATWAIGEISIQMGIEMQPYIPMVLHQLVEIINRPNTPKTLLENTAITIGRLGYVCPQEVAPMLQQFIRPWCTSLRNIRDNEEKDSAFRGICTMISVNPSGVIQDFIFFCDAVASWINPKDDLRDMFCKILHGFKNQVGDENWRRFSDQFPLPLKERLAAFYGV

No constants are given. Whether binding was seen depends on the method and setting. For some of these results: Binding seen in cells or lysates may run through a third protein. Some entries that bind do so weakly or less than the wild type. For some of these results: Where a sequence is shown, tags or fusion partners need not be part of it.

For test [1], the target named is T1, GST–Nab2p NLS (S. cerevisiae) (UniProt P32505).
T1 sequence: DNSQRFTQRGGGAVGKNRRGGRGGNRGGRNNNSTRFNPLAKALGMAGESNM
The test is described as follows: pull-down; Kapβ2 with immobilized Nab2p NLS and Hrp1p NLS, in the presence and absence of RanGTP; Coomassie (Figure S2).

For test [2], the target named is T2, GST–Hrp1p NLS (S. cerevisiae) (UniProt Q99383).
T2 sequence: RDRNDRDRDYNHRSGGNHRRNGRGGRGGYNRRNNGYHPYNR
The description is as above.

For test [3], the target named is T3, Kap104p (yeast (S. cerevisiae)) (UniProt P38217).
T3 sequence: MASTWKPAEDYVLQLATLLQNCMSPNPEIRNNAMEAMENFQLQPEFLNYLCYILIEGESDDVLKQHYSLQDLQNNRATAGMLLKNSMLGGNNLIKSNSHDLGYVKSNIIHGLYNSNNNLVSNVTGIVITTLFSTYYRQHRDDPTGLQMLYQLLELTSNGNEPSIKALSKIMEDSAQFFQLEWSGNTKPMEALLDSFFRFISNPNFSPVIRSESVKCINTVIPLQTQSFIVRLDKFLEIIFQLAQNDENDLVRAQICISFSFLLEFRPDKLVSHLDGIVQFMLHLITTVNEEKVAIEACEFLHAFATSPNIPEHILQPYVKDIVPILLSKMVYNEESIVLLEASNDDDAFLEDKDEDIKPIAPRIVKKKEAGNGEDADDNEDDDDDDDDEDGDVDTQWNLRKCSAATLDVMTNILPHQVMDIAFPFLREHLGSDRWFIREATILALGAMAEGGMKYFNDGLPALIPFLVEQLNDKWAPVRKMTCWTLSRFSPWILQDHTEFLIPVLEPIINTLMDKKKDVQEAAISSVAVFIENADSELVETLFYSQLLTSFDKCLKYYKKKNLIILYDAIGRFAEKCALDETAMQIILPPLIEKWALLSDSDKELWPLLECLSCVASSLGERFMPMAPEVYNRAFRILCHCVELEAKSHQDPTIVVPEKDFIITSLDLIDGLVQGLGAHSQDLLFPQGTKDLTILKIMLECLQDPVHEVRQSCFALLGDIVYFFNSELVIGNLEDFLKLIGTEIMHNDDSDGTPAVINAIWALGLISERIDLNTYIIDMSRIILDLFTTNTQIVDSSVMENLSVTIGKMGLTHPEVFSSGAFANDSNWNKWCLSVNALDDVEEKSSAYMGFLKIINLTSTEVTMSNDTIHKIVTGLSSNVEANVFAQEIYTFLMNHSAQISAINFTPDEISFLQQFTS
The test is described as follows: condition: 90–350 μM MBP-NLS titrated into 9–35 μM Kap104p; ITC; 90–350 μM MBP-NLS titrated into 9–35 μM Kap104p in the cell; 20 °C; 20 mM Tris pH 7.5, 100 mM NaCl, 2 mM β-mercaptoethanol, 10% glycerol; 35 injections of 8 μl; single-site model; both purified.

The target in test [4] is T3, Kap104p (yeast (S. cerevisiae)). The test is described as follows: ITC; 90–350 μM MBP-NLS titrated into 9–35 μM Kap104p in the cell; 20 °C; 20 mM Tris pH 7.5, 100 mM NaCl, 2 mM β-mercaptoethanol, 10% glycerol; 35 injections of 8 μl; single-site model; both purified.
Another test addresses T4, GST–hnRNP M NLS (human) (UniProt P52272).
T4 sequence: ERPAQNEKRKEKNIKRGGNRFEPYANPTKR
The test is described as follows: pull-down; ~30 μg Kap104p added to ~10 μg GST protein immobilized on 20 μl glutathione sepharose; washes with TB buffer (20 mM HEPES pH 7.3, 110 mM KAc, 2 mM MgAc, 1 mM EGTA, 2 mM DTT, 20% glycerol); second incubation with buffer or RanGTP (5-fold molar excess); SDS-PAGE, Coomassie; both purified.

Another test concerns the target GST–hnRNP A1 NLS (human) (UniProt P09651). The description is as above.

On to “Karyopherin β2 (from UniProt Q92973 1-898) (receptor)”, for which the binding entry in test [1] and in test [2] was “binds” throughout.

In the case of RDRNDRDRDYNHRSGGNHRRNGRGGRGGYNRRNNGYHPGNR (domain or fragment, UniProt Q99383 494-534) [MBP–Hrp1p NLS Y532G], the binding entry in test [3] is “no binding”.

With RDRNDRDRDYNHRSGGNHRRNGRGGRGGYNRRNNGYHPLNR (domain or fragment, UniProt Q99383 494-534) [MBP–Hrp1p NLS Y532L], the binding entry in test [3] is on record as “no binding”.

With RDRNDRDRDYNHRSGGNHRRNGRGGRGGYNRRNNGYHPRNR (domain or fragment, UniProt Q99383 494-534) [MBP–Hrp1p NLS Y532R], the binding result in test [3] was “no binding”.

Take RDRNDRDRDYNHRSGGNHRRNGRGGRGGYNRRNNGYHPSNR (domain or fragment, UniProt Q99383 494-534) [MBP–Hrp1p NLS Y532S]: the binding result in test [3] is reported as “no binding”.

In the case of RDRNDRDRDYNHRSGGNHRRNGRGGRGGYNRRNNGYHPINR (domain or fragment, UniProt Q99383 494-534) [MBP–Hrp1p NLS Y532I], the binding entry in test [3] is reported as “no binding”.

As to RDRNDRDRDYNHRSGGNHRRNGRGGRGGYNRRNNGYHPANR (domain or fragment, UniProt Q99383 494-534) [MBP–Hrp1p NLS Y532A], the binding entry in test [3] is on record as “no binding”.

Take RDRNDRDRDYNHRSGGNHRRNGRGGRGGYNRRNNGYHPTNR (domain or fragment, UniProt Q99383 494-534) [MBP–Hrp1p NLS Y532T]: the binding result in test [3] is “no binding”.

Take RDRNDRDRDYNHRSGGNHRRNGRGGRGGYNRRNNGYHPENR (domain or fragment, UniProt Q99383 494-534) [MBP–Hrp1p NLS Y532E]: the binding entry in test [3] is reported as “no binding”.

In the case of RDRNDRDRDYNHRSGGNHRRNGRGGRGGYNRRNNGYHPWNR (domain or fragment, UniProt Q99383 494-534) [MBP–Hrp1p NLS Y532W], in test [3], the binding result is “no binding”.

For RDRNDRDRDYNHRSGGNHRRNGRGGRGGYNRRNNGYHAANR (domain or fragment, UniProt Q99383 494-534) [MBP–Hrp1p NLS 531PY532/AA], the binding result in test [4] was “no binding (tested: likely weaker than 10 μM)”.

For RDRNDRDRDYNHRSGGNHRRNGRGGRGGYNRRNNGYHPQNR (domain or fragment, UniProt Q99383 494-534) [MBP–Hrp1p NLS Y532Q], the binding result in test [3] is recorded as “no binding”.

Regarding RDRNDRDRDYNHRSGGNHRRNGRGGRGGYNRRNNGYHPDNR (domain or fragment, UniProt Q99383 494-534) [MBP–Hrp1p NLS Y532D], the binding entry in test [3] is “no binding”.

For RDRNDRDRDYNHRSGGNHRRNGRGGRGGYNRRNNGYHPVNR (domain or fragment, UniProt Q99383 494-534) [MBP–Hrp1p NLS Y532V], the binding result in test [3] was “no binding”.

For RDRNDRDRDYNHRSGGNHRRNGRGGRGGYNRRNNGYHPKNR (domain or fragment, UniProt Q99383 494-534) [MBP–Hrp1p NLS Y532K], in test [3], the binding entry is given as “no binding”.

For RDRNDRDRDYNHRSGGNHRRNGRGGRGGYNRRNNGYHPCNR (domain or fragment, UniProt Q99383 494-534) [MBP–Hrp1p NLS Y532C], the binding result in test [3] is reported as “no binding”.

With RDRNDRDRDYNHRSGGNHRRNGRGGRGGYNRRNNGYHPPNR (domain or fragment, UniProt Q99383 494-534) [MBP–Hrp1p NLS Y532P], the binding result in test [3] is “no binding”.

RDRNDRDRDYNHRSGGNHRRNGRGGRGGYNRRNNGYHPNNR (domain or fragment, UniProt Q99383 494-534) [MBP–Hrp1p NLS Y532N]: in test [3], the binding result was “no binding”.

B1: MBP–Nab2p NLS L239P (domain or fragment, UniProt P32505 201-251)
chain: DNSQRFTQRGGGAVGKNRRGGRGGNRGGRNNNSTRFNPPAKALGMAGESNM
Regarding B1, in test [4], the binding entry was “binds”.

B2: Kap104p (receptor)
chain: MASTWKPAEDYVLQLATLLQNCMSPNPEIRNNAMEAMENFQLQPEFLNYLCYILIEGESDDVLKQHYSLQDLQNNRATAGMLLKNSMLGGNNLIKSNSHDLGYVKSNIIHGLYNSNNNLVSNVTGIVITTLFSTYYRQHRDDPTGLQMLYQLLELTSNGNEPSIKALSKIMEDSAQFFQLEWSGNTKPMEALLDSFFRFISNPNFSPVIRSESVKCINTVIPLQTQSFIVRLDKFLEIIFQLAQNDENDLVRAQICISFSFLLEFRPDKLVSHLDGIVQFMLHLITTVNEEKVAIEACEFLHAFATSPNIPEHILQPYVKDIVPILLSKMVYNEESIVLLEASNDDDAFLEDKDEDIKPIAPRIVKKKEAGNGEDADDNEDDDDDDDDEDGDVDTQWNLRKCSAATLDVMTNILPHQVMDIAFPFLREHLGSDRWFIREATILALGAMAEGGMKYFNDGLPALIPFLVEQLNDKWAPVRKMTCWTLSRFSPWILQDHTEFLIPVLEPIINTLMDKKKDVQEAAISSVAVFIENADSELVETLFYSQLLTSFDKCLKYYKKKNLIILYDAIGRFAEKCALDETAMQIILPPLIEKWALLSDSDKELWPLLECLSCVASSLGERFMPMAPEVYNRAFRILCHCVELEAKSHQDPTIVVPEKDFIITSLDLIDGLVQGLGAHSQDLLFPQGTKDLTILKIMLECLQDPVHEVRQSCFALLGDIVYFFNSELVIGNLEDFLKLIGTEIMHNDDSDGTPAVINAIWALGLISERIDLNTYIIDMSRIILDLFTTNTQIVDSSVMENLSVTIGKMGLTHPEVFSSGAFANDSNWNKWCLSVNALDDVEEKSSAYMGFLKIINLTSTEVTMSNDTIHKIVTGLSSNVEANVFAQEIYTFLMNHSAQISAINFTPDEISFLQQFTS
As to B2, the binding result was “binds” with GST–hnRNP M NLS (human) and “no binding” with GST–hnRNP A1 NLS (human).
